Data as given in PubChem BioAssay AID686943 (Drosophila RNAi Screening Center, 2013).
The deposit covers about 23,000 reagents; below is an unselected part of those with a known target gene and a result. 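Extra replicates exist only for a retested subset of genes; insulin dose and duration not given; both raised and lowered dpERK matter.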 Names joined by + are all predicted targets of the reagent. Further read-outs or replicates are left out here. Not given: the amount of reagent, the time to read-out.

Aim: 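Knockdowns that increase or decrease active ERK after insulin receptor stimulation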 (primary screen)
Cells: Drosophila S2R+ haemocyte-like cells expressing YFP-tagged ERK (Rolled)
Reagents: long dsRNA against Drosophila genes
Conditions: insulin stimulation versus unstimulated cells; dose and duration not given
Detection: 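Antibody staining for doubly phosphorylated ERK divided by ERK-YFP signal, as plate z-scores, in insulin-treated and untreated cells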
Direction: replicate 1, z-score of dpERK with insulin and replicate 2, z-score of dpERK with insulin: higher = more active ERK per ERK-YFP after insulin

no.	target gene	DRSC id	replicate 1, z-score of dpERK with insulin	replicate 2, z-score of dpERK with insulin
1	MagR	DRSC20092	-0.98	-2.1
2	CG16721	DRSC18113	0.14	0.41
3	CG7148	DRSC11802	0.14	0
4	EMC7	DRSC07162	1.25	0.52
5	CG43085	DRSC09497	-0.84	-0.39
6	Sgp	DRSC02195	0.59	-1.8
7	Sirt7	DRSC14294	-0.48	1.47
8	ppk28	DRSC19919	-0.19	0.57
9	CG13564	DRSC04201	-0.1	-0.08
10	MESR6	DRSC10720	-0.27	-0.56
11	ACC	DRSC06059	-3.01	-2.78
12	ACC	DRSC07249	1.03	-0.14
13	Tep3	DRSC03452	-0.69	-0.71
14	fzr2	DRSC04280	0.59	0.15
15	CG31126	DRSC14623	0.33	-0.22
16	Gr43a	DRSC06658	0.39	0.14
17	CG2577	DRSC19863	-0.2	-0.24
18	SkpB	DRSC07683	0.44	1.86
19	Zif	DRSC12514	-2.76	-1.43
20	UQCR-6.4	DRSC06454	0.79	-0.01
21	CG31407	DRSC12761	-0.38	0.19
22	CG10208	DRSC14211	-0.37	0
23	corn	DRSC11021	-0.52	-0.71
24	corn	DRSC21943	0.69	0.64
25	Buffy	DRSC05957	-0.45	1.01
26	Ugt304A1	DRSC15127	0.06	0.14
27	CR12628 + Mgstl	DRSC03702	0.07	-0.13
28	CR12628 + Mgstl	DRSC20568	-0.11	0.68
29	Set	DRSC16861	-0.79	-0.19
30	Mvk + CG33672 + spt4	DRSC05356	0.53	0.2
31	Mvk + CG33672 + spt4	DRSC06628	-1.48	-0.93
32	CG10911	DRSC06008	1.12	0.53
33	Mst57Db	DRSC21551	0.24	0.21
34	MtnC	DRSC22879	0.29	1.48
35	wdn	DRSC17095	0.15	1.62
36	syd	DRSC10963	0.03	0.29
37	CG4238	DRSC00090	1.57	1.1
38	CG4238	DRSC00644	0.28	0.02
39	CG6937 + btn	DRSC16917	0.26	-0.19
40	CG12825	DRSC06174	0.03	0.55
41	prd1	DRSC15227	-0.84	-2.11
42	Nmt	DRSC11236	1.46	1.03
43	blanks	DRSC09757	-1.41	-0.12
44	CG4962	DRSC10464	0.67	0.14
45	myo	DRSC17174	-0.28	-0.05
46	RnrL	DRSC03413	-1.12	-1.4
47	ph-d	DRSC18819	-1.41	-1.77
48	CG8252	DRSC07126	-0.14	-0.1
49	PGRP-SD	DRSC10856	1.1	0.37
50	lok	DRSC03567	-1.14	-0.65
51	Gapdh2	DRSC20246	1.42	1.48
52	CG13912	DRSC08381	-0.42	0.65
53	CG16758	DRSC07984	1.14	-1.01
54	CG16758	DRSC08492	0.02	-0.17
55	STUB1	DRSC03282	-1.11	-0.76
56	AGO3	DRSC21386	-0.08	1.08
57	Sirt6	DRSC16010	0.14	0.16

Sorted by “replicate 2, z-score of dpERK with insulin” (lowest first): some entries from above.
target gene	DRSC id	replicate 1, z-score of dpERK with insulin	replicate 2, z-score of dpERK with insulin
corn	DRSC11021	-0.52	-0.71
CG10208	DRSC14211	-0.37	0
corn	DRSC21943	0.69	0.64
